These are yes or no findings as the source states them, for the method shown. For part of these data: Binding seen in cells or lysates may run through a third protein. Some binding calls cover weakened binding; strength is not graded here. For part of these data: Tags and fused reporters may be left off the sequences shown.

Experiment [1] deals with T1, Flag-Fbxl8 (Sf9, purified) (UniProt Q8CIG9).
T1 sequence: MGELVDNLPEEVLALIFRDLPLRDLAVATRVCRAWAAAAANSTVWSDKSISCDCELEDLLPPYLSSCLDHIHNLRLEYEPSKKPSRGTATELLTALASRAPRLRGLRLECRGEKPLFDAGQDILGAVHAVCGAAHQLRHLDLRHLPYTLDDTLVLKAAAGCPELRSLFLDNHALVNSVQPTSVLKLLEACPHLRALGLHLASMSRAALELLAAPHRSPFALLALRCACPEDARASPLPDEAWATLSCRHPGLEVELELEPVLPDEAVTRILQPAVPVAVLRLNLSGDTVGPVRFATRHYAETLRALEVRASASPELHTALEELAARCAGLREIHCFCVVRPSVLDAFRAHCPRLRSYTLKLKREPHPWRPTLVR
Description: pull-down; in vitro binding: Flag-Fbxl8 or Flag-Fbxo4 purified on anti Flag beads from sf9, incubated 4 h with cyclin D3/CDK4 or cyclin D2/CDK4 purified from sf9; washed 5 times with Tween20 lysis buffer (50 mM HEPES pH 8.0, 150 mM NaCl, 0.1% Tween 20); western blot; both purified. Background: Immunoblotting shows a protein as a band on a membrane.

For experiment [2], the target named is T2, Flag-Fbxo4 (Sf9, purified) (UniProt Q8CHQ0).
T2 sequence: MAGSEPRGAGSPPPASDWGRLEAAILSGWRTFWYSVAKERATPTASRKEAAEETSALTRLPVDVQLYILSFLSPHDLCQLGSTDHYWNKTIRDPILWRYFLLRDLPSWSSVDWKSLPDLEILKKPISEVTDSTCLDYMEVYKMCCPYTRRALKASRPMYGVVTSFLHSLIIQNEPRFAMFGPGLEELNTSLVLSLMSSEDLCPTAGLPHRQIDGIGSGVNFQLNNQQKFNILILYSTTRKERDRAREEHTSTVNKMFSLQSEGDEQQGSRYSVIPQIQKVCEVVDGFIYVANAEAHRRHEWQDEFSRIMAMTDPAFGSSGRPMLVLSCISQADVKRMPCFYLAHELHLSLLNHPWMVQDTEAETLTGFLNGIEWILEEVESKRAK
The description is as above.

For experiment [3], the target named is T3, endogenous Fbxl8 (NIH3T3 cells) (mouse (endogenous in NIH3T3)) (UniProt Q8CIG9).
T3 sequence: T1 sequence
In words: co-IP; endogenous proteins, NIH3T3 lysate, MG132 (20 μM) for 4 h; normal IgG or an antibody specific for Fbxl8; blot for cyclin D3, D2, D1.

Another experiment concerns the target T4, HA-Fbxl8 (HEK293T) (UniProt Q8CIG9).
T4 sequence: T1 sequence
In words: co-IP; HEK293T co-transfected with Flag-cyclin D3 or D3TA and HA-Fbxl8, with or without MG132 (20 μM) for 4 h; normal IgG or anti-HA.

Experiment [4] deals with T5, Fbxl8 (immunoprecipitation of Fig. S5C) (UniProt Q8CIG9).
T5 sequence: T1 sequence
In words: co-IP; immunoprecipitation (Fig. S5C), without Leptomycin B; cells and constructs not shown.

The next experiment deals with T6, Flag-D3 (NIH3T3) (UniProt P30282).
T6 sequence: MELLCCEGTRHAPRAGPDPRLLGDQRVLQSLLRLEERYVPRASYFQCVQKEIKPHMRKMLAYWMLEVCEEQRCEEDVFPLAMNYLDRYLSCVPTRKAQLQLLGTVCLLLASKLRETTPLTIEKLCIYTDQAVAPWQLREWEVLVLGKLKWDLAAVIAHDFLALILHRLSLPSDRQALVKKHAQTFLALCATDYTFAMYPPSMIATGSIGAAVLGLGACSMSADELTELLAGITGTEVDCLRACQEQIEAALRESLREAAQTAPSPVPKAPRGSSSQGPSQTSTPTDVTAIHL
Description: co-IP; NIH3T3 co-transfected with HA-GFP or HA-Fbxl8 (wild type or deletion mutants) and Flag-D3, MG132 (20 μM) for 4 h; anti-Flag beads.

B1: Cyclin D3/CDK4 (Sf9, purified) (complex, UniProt P30282 1-292; P30285 1-303)
chain 1: T6 sequence
chain 2: MAATRYEPVAEIGVGAYGTVYKARDPHSGHFVALKSVRVPNGGAAGGGLPVSTVREVALLRRLEAFEHPNVVRLMDVCATSRTDRDIKVTLVFEHIDQDLRTYLDKAPPPGLPVETIKDLMRQFLSGLDFLHANCIVHRDLKPENILVTSNGTVKLADFGLARIYSYQMALTPVVVTLWYRAPEVLLQSTYATPVDMWSVGCIFAEMFRRKPLFCGNSEADQLGKIFDLIGLPPEDDWPREVSLPRGAFAPRGPRPVQSVVPEMEESGAQLLLEMLTFNPHKRISAFRALQHSYLHKEESDAE
In the case of B1, the binding entry in experiment [1] is given as “binds”; in experiment [2], “no binding”.

B2: endogenous cyclin D3 (NIH3T3 cells) (protein, UniProt P30282 1-292)
chain: T6 sequence
In the case of B2, the binding result in experiment [3] is “binds”.

B3: Flag-tagged cyclin D3 (HEK293T) (protein, UniProt P30282 1-292)
chain: T6 sequence
Consider B3, for which, in the experiment with HA-Fbxl8 (HEK293T), the binding result is reported as “binds”.

B4: cyclin D3 (immunoprecipitation of Fig. S5C) (protein, UniProt P30282 1-292)
chain: T6 sequence
As for B4, in experiment [4], the binding result is on record as “binds”.

B5: HA-Fbxl8 wild type (NIH3T3) (protein, UniProt Q8CIG9 1-374)
chain: T1 sequence
Take B5: the binding result with Flag-D3 (NIH3T3) was “binds”.

Source of the values: paper PMC7808939.
